Source: doi:10.1101/413799
Results are given in words; binding and its absence hold for the method and conditions named. Binding seen in cells or lysates may run through a third protein. Some results given as binding are weak or reduced against the parent protein; the word gives no strength. Sequences can lack the tags named with a protein.

Tests used:
[1] = target: T1, GFP11-mCherry-Mps2 (budding yeast) (UniProt P53159); experiment: split reporter
T1 sequence: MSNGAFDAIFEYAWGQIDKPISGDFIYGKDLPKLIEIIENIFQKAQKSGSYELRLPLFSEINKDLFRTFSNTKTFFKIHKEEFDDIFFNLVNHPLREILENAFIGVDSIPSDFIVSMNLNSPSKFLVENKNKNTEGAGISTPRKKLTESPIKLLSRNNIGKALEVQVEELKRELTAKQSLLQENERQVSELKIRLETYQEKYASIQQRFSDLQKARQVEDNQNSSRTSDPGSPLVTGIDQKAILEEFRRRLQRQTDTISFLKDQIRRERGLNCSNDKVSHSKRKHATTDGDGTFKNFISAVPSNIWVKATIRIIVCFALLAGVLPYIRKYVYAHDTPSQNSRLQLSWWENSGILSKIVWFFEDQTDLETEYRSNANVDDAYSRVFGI

[2] = target: T2, YFP-Mps3 (budding yeast), P47069; experiment: FRET or BRET; conditions: remark: other sources report otherwise
T2 chain: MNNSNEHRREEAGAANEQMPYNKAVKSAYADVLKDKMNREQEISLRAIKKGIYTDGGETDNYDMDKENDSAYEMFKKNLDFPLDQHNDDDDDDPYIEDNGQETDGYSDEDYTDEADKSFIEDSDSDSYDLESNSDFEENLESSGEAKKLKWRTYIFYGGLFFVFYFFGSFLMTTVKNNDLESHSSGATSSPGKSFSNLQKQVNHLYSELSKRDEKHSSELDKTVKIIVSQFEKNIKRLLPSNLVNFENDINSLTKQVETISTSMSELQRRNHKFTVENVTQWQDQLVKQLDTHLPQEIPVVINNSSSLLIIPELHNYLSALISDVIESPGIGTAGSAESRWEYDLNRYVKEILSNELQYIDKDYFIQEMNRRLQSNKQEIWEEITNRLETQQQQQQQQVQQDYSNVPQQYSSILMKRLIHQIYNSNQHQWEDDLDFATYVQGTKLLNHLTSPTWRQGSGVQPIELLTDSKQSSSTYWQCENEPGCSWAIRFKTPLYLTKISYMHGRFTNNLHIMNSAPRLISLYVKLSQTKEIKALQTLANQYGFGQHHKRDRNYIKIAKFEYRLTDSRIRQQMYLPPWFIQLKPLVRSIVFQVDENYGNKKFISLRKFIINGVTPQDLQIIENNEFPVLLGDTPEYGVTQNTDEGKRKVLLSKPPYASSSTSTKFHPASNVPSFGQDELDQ

[3] = target: T3, YFP-Mps3 (budding yeast) (UniProt P47069); experiment: FRET or BRET
T3 sequence: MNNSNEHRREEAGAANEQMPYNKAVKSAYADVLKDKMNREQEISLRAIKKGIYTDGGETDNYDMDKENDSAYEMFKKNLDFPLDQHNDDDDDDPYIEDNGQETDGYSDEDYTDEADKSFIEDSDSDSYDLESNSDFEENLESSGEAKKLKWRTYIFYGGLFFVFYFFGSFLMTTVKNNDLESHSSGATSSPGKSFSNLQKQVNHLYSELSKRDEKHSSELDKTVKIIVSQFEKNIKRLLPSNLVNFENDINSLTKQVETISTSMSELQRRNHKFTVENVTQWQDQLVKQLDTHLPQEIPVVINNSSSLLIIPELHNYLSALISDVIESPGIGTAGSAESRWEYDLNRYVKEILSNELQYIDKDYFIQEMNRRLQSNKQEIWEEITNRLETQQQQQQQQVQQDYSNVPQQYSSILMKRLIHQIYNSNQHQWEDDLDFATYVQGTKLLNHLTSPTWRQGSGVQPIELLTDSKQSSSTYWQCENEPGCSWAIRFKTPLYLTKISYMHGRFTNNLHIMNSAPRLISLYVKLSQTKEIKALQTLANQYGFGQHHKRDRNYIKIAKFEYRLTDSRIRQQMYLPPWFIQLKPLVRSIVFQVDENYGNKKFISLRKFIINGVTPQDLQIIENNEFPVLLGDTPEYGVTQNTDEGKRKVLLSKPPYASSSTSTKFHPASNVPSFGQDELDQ

B1: GFP_(1-10)-Mps3 (protein, UniProt P47069 1-682)
chain: MNNSNEHRREEAGAANEQMPYNKAVKSAYADVLKDKMNREQEISLRAIKKGIYTDGGETDNYDMDKENDSAYEMFKKNLDFPLDQHNDDDDDDPYIEDNGQETDGYSDEDYTDEADKSFIEDSDSDSYDLESNSDFEENLESSGEAKKLKWRTYIFYGGLFFVFYFFGSFLMTTVKNNDLESHSSGATSSPGKSFSNLQKQVNHLYSELSKRDEKHSSELDKTVKIIVSQFEKNIKRLLPSNLVNFENDINSLTKQVETISTSMSELQRRNHKFTVENVTQWQDQLVKQLDTHLPQEIPVVINNSSSLLIIPELHNYLSALISDVIESPGIGTAGSAESRWEYDLNRYVKEILSNELQYIDKDYFIQEMNRRLQSNKQEIWEEITNRLETQQQQQQQQVQQDYSNVPQQYSSILMKRLIHQIYNSNQHQWEDDLDFATYVQGTKLLNHLTSPTWRQGSGVQPIELLTDSKQSSSTYWQCENEPGCSWAIRFKTPLYLTKISYMHGRFTNNLHIMNSAPRLISLYVKLSQTKEIKALQTLANQYGFGQHHKRDRNYIKIAKFEYRLTDSRIRQQMYLPPWFIQLKPLVRSIVFQVDENYGNKKFISLRKFIINGVTPQDLQIIENNEFPVLLGDTPEYGVTQNTDEGKRKVLLSKPPYASSSTSTKFHPASNVPSFGQDELDQ
With B1 the binding [1] was “binds”.

B2: Bbp1-GFP_(1-10) (protein, UniProt Q12365 1-385)
chain: MNQEDNTGGGGIFGLFKWTKDALFGTDISPSMKYKDQEERRDRSRYAQDDTNFSMKFGNDSNRRSTNLSRSNSWSGLDSTLHRKYELLPEYNENGFNSIVNGDHHSKERIRSLRSPAPIVPREPLRNEPTDTFGHRLHTKRRTINELSNSQIPFIPPQEDDPLLSKLFNKDGVNEVRRSPYKLSVKDIPGKFPSPLTKRDEIDNYYVRDEDACHKNREYKKAYFDLFAQMDLNSRDLEDLCEDVREQREQFHRNEQTYKQAYEEMRAELVNELKKSKTLFENYYSLGQKYKSLKKVLDQTISHEAELATSRERLYQEEDLKNFEIQTLKQRLSDLELKYTNLQIEKDMQRDNYESEIHDLLLQLSLRNNERKDTSAGSNIFSTGQ
For B2, the binding [1] was “binds”.

B3: Ndc1-mT2, P32500 1-655 (protein)
chain: MIQTPRELLNPRYTYHTIFSDVCKTRFNHLVTRLFFICSIIQTVVISLLALPHSPLWELALAFIPNILALNLVSLLIIVTRKNYMHVKNFGFANSLTFILGQLLSVKFLVYQGVYSMGSILLSFVLGVVFGRGGSGWKPYYKLFIWLVVPTIYNLQHHVTDADKLSFNCENFFQAPQDYVLERVKRIMEKSVILSVISMFVLPIFTTVFFSRQKSGLFDSFTNGVLAVTNLLIISCIIFITFEFINIAFDAHMSIGCLHKGKLISNLSSTPMETLLSGLSADKPFTRLTAYQELAYRATSLDPSLRAPIYHSKFRSSSGNTWSLILNECLKTIQINNEKVVQYLRSVQDLGGSATARHKKKVENLDYMYENGKLTSANERLFGNRPSMMAPLRDNGLLDESPNRLRVRTDDSVLLNRGNKKRHRSSYYDNDLDETTQTFNGSIFTHETTFMTAMRLMLKKLKNSIMSFIFPSYAERQSSDESDNYRLLPNGSNKAQISIIDIWSISKKRQAEKLVPLPICHANSVVALTGLLIRSKTEDPKGGIIASVGDILKTLERSICALGEFADWDPESMAYTAFQTQRTAQDRVQQDSEDEDSMKDTTDMISVLYQLSTSAFMEIVLEYNVALNDVYLDADVAKLANWFLEVYASGNPNAT
For B3, the binding [2] was “no binding”.

B4: Bbp1-mT2 (protein, UniProt Q12365 1-385)
chain: MNQEDNTGGGGIFGLFKWTKDALFGTDISPSMKYKDQEERRDRSRYAQDDTNFSMKFGNDSNRRSTNLSRSNSWSGLDSTLHRKYELLPEYNENGFNSIVNGDHHSKERIRSLRSPAPIVPREPLRNEPTDTFGHRLHTKRRTINELSNSQIPFIPPQEDDPLLSKLFNKDGVNEVRRSPYKLSVKDIPGKFPSPLTKRDEIDNYYVRDEDACHKNREYKKAYFDLFAQMDLNSRDLEDLCEDVREQREQFHRNEQTYKQAYEEMRAELVNELKKSKTLFENYYSLGQKYKSLKKVLDQTISHEAELATSRERLYQEEDLKNFEIQTLKQRLSDLELKYTNLQIEKDMQRDNYESEIHDLLLQLSLRNNERKDTSAGSNIFSTGQ
In the case of B4, the binding [3] is reported as “no binding”.
